# Reference: PubChem BioAssay AID2685 (National Center for Advancing Translational Sciences (NCATS), 2010)
# Hit rate of the full screen: of about 320,000 compounds, about 2,100 (0.66%) were called active. This list was built around the results that the source calls inconclusive (neither active nor inactive); the mix of calls is not that of the screen. The call rests on the fitted dose curve; in most records, active means well fitted inhibition curve with a large enough effect in the signal ratio, with a control signal flat (not every such curve was filed as active); inconclusive means small, poorly fitted or top-dose-only effect, or effect the other way, or a change in a side signal; inactive means flat fitted curve, though single readings scatter; the % refers to the signal ratio. Potencies beside an inconclusive call are fits to weak or partial responses and may not hold up.
# Experiment: qHTS Assay for Lipid Storage Modulators in Drosophila S3 Cells
# Conditions: BODIPY lipid droplet fluorescence, 18-24 h, cells fed with added oleic acid; lipid storage change, negative = inhibition: at 46.1 µM (top of the series) unless noted
# Outline: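 Drosophila S3 cells loaded with oleic acid (400 uM, as added) and compounds at several concentrations; lipid droplets imaged by 488-nm laser-scanning cytometry, 500–530 nm intensity and object ratio to cell channel. Percent activity normalized to 20 uM Triacsin C.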
# On the % scale 0 is the no-effect control and ±100 the full control effect; potency means the concentration at half of the fitted maximal effect.
Compound,"lipid storage change, negative = inhibition",Potency
O=C1NC(=S)N(c2cccc(Cl)c2)C12CCCCC2,inconclusive: -48.2%,
CC(=O)Nc1ccc(NC(=O)COC(=O)c2c3c(nc4ccccc24)CCN(Cc2ccccc2)C3)cc1,inconclusive: 6.2%,
CCCC(=O)Nc1ccccc1-c1nnn(CC(=O)Nc2ccc(OC)cc2)n1,,"inconclusive: 517 nM [activator, full curve]"
Cc1ccc2cc(N)ccc2n1,,"inconclusive: 651 nM [falling, full curve]"
CC(=N[C@@H]1CCCC[C@H]1N=C(C)c1ccccc1O)c1ccccc1O,,"inconclusive: 411 nM [falling, full curve, poor fit]"
Cn1c(SCc2ccc([N+](=O)[O-])cc2)nnc1-c1cccnc1,inconclusive: 43.5%,
CCOc1ccc(Oc2ccc(NC(=O)CSc3nncn3C)cc2)cc1,inconclusive: 36.4%,
O=S(=O)(NC(=NCc1ccccc1)c1ccccc1)c1ccccc1,inconclusive: 71.1%,
COc1ccc(-c2cc(C(F)F)n3ncc(C(=O)N4CCSCC4)c3n2)cc1,inconclusive: 32%,
CN(CC(=O)Nc1ccccc1Br)C(=O)CCc1ccccc1,,"inconclusive: 9200 nM [activator, partial curve]"
CCOC(=O)c1c(C)[nH]c(C)c1S(=O)(=O)NCCc1ccco1,,"inconclusive: 3660 nM [falling, single point]"
Cc1ccc(C(=O)c2cc([N+](=O)[O-])ccc2N2CCCCC2)cc1,,"inconclusive: 1300 nM [falling, single point]"
COc1ccc(-c2noc(CNC(=O)Nc3ccc(F)cc3)n2)cc1,inconclusive: 19.2%,
Cc1ccc(CNC(=O)CN(C)S(=O)(=O)c2cccc3cccnc23)cc1,inconclusive: 27% [at 9.22 µM],
O=C(COC(=O)c1ccc(F)cc1F)Nc1ccc(Cl)cn1,inconclusive: 10.4%,
O=C(O)CCCNC1=NCCC1,inconclusive: -10.7%,
COc1ccc(-n2c(SCC(=O)c3c(N)n(C)c(=O)n(C)c3=O)nc3ccccc32)cc1,inconclusive: 44.3%,
O=c1cc(-c2ccc3c(c2)OCO3)oc2ccccc12,,"inconclusive: 461 nM [rising, full curve]"
COc1ccccc1NC(=O)C1CCC(CNc2c(N3CCCCC3)c(=O)c2=O)CC1 (configuration not stated),inconclusive: 46.2%,
O=C(CN1CCN(C(=O)c2ccco2)CC1)Nc1ccccc1-c1ccccc1,inconclusive: 35.6%,
CC(C)[C@H](NC(=O)OCc1ccccc1)C(=O)OCC(=O)Nc1ccc(N2CCOCC2)cc1,inconclusive: 3%,
O=C1C2C3C=CC(C4CC34)C2C(=O)N1/N=C/c1ccc(-c2cccc([N+](=O)[O-])c2)o1 (configuration not stated),inconclusive: -13.5%,
C(#Cc1ccccc1)CN1CCCCC1,inconclusive: 28.8%,
CC(=O)Nc1ccc(NS(=O)(=O)c2cn(C)c(=O)n(C)c2=O)cc1,inconclusive: 4.68%,
CC(C)[C@H](NS(=O)(=O)c1cccc(Cl)c1)C(=O)OCC(=O)N1CCN(c2ccccc2)CC1,,"inconclusive: 29100 nM [falling, single point]"
CCO[C@H]1OC(C(=O)N2CCN(Cc3ccc4c(c3)OCO4)CC2)=C[C@@H](c2csc3ccccc23)[C@@H]1CCCO,inconclusive: -32.7%,

# Structures from the list above that have a Cl atom (three):
Compound,"lipid storage change, negative = inhibition",Potency
O=C1NC(=S)N(c2cccc(Cl)c2)C12CCCCC2,inconclusive: -48.2%,
O=C(COC(=O)c1ccc(F)cc1F)Nc1ccc(Cl)cn1,inconclusive: 10.4%,
CC(C)[C@H](NS(=O)(=O)c1cccc(Cl)c1)C(=O)OCC(=O)N1CCN(c2ccccc2)CC1,,"inconclusive: 29100 nM [falling, single point]"

# (list continues)

Compound,"lipid storage change, negative = inhibition",Potency
COc1cccc(C2C3=C(N=C4SCC(=O)N42)c2ccccc2CC3)c1OC (configuration not stated),inconclusive: 37.6%,
CCCCN(C)CCNC(=S)Nc1ccc2nc(N3CCN(CC)CC3)cc(C)c2c1,inconclusive: 16.1%,
NNC(=O)c1ccc(CSc2cccc3cccnc23)cc1,inconclusive: -7.43%,
Cc1cc(C)c2oc(C(=O)NC3CCS(=O)(=O)C3)cc(=O)c2c1 (configuration not stated),,"inconclusive: 29100 nM [falling, single point]"
O=C(COc1ncnc2ccccc12)N1CCOCC1,,"inconclusive: 29100 nM [falling, single point]"
COc1ccc(NC(=O)CSCC(=O)NCc2cccc(C(F)(F)F)c2)cc1,,"inconclusive: 411 nM [falling, single point]"
O=C(CN(CC1CCCO1)C(=O)CNS(=O)(=O)c1ccc(Cl)cc1)NCc1ccco1 (configuration not stated),inconclusive: -61.9%,
O=[N+]([O-])c1ccccc1S(=O)(=O)N1CCN(c2ccccn2)CC1,inconclusive: 2.42%,
Cc1ccc(S(=O)(=O)N(C)C)cc1NC(=S)NCCCn1ccnc1,inconclusive: 13.7%,
CC12CCC(=O)N1C(C(=O)NNC(=O)c1ccccc1Cl)CS2 (configuration not stated),inconclusive: 9.92%,
O=C1c2ccccc2NC(c2cccc([N+](=O)[O-])c2)N1O (configuration not stated),inactive,
CCCN(CCC)C(=O)c1c(C)[nH]c(C(=O)OCC)c1C,inconclusive: 16.6%,
COc1cc(C2SCC(=O)N2CCN2CCCCC2)ccc1O (configuration not stated),inconclusive: 13%,
CCOC(=O)/C(C#N)=C/c1cn(CCC(=O)O)nc1-c1cccc(Br)c1,inconclusive: -9.46%,
COc1ccc(C(=O)/C=C2/c3ccccc3CC(C)(C)N2C)cc1,,"inconclusive: 5.8 nM [activator, full curve, poor fit]"
CC(C)[C@H](NC(=O)NCCC1=CCCCC1)C(=O)O,,"inconclusive: 1160 nM [falling, full curve]"
O=C(O)CC(C(=O)OCCOc1ccccc1)N1CCOCC1 (configuration not stated),inconclusive: -2.99%,
O=C(CN1CCN(c2ccc(F)cc2)CC1)Nc1nnc(-c2ccccc2)s1,inconclusive: 22%,
O=C1OC2(CCCCC2)CC2=C1C1O[C@](c3ccsc3)(Cc3ccccc31)O2,inconclusive: 8.96% [at 9.22 µM],
COCCCn1c(-c2ccsc2)nc2c1c(=O)[nH]c(=O)n2Cc1ccccc1,,"inconclusive: 146 nM [activator, full curve, poor fit]"
COC(=O)c1c(NC(=O)Nc2ccc(Cl)cc2)sc(C)c1C,inconclusive: 37.1%,
CC1CCN(C(=O)c2ccc(N3C(=O)c4ccccc4C3=O)cc2)CC1,,"inconclusive: 29100 nM [activator, single point]"
CCC(Oc1ccccc1OC)C(=O)Nc1ccc2c(c1)OCCO2 (configuration not stated),inconclusive: 42.4%,
CC(C(=O)Nc1ccc2c(c1)OCCO2)N(C)Cc1c(F)cccc1Cl (configuration not stated),inactive,
Cc1ccccc1N=C1NN=C(c2ccccc2F)CS1,inconclusive: 14.8%,
OCC[C@H]1C[C@@H](O)[C@H](O)[C@]2(OCCc3ccccc32)O1,inconclusive: -16%,

Compound,"lipid storage change, negative = inhibition",Potency
CC1CC(C)CN(S(=O)(=O)c2ccc3c(c2)oc(=O)n3CC(=O)N(C)Cc2ccccc2)C1 (configuration not stated),inconclusive: -67%,
Cc1ccc(C=C2C(Cl)=C(Cl)C(Cl)=C2Cl)cc1,inconclusive: -26.1%,
COCCn1c(SCC(=O)Nc2ccc(C(N)=O)cc2)nc2c([nH]c3ccccc32)c1=O,inconclusive: 11.1%,
CC(=O)Nc1cccc(/C(C)=N/NS(=O)(=O)c2ccc(C)cc2)c1,inconclusive: 33.1%,
O=C(CN1CC(c2ccccc2)CC1=O)OCc1cccc(Br)c1 (configuration not stated),inactive,
OCC[C@H]1C[C@@H](O)[C@H](O)[C@]2(OCc3ccccc32)O1,,"inconclusive: 6510 nM [activator, partial curve, poor fit]"
CS(=O)(=O)N1CCc2cc(C(=O)N3CCN(c4ccccc4)CC3)ccc21,,"inconclusive: 1160 nM [activator, partial curve]"
CCOC(=O)c1c(NC(=O)c2cccs2)sc(C)c1CC,,"inconclusive: 2910 nM [activator, single point]"
O=C(c1cc(NC(=O)C23CC4CC(CC(C4)C2)C3)cc(NC(=O)C23CC4CC(CC(C4)C2)C3)c1)N1CCCCC1,inconclusive: -16.4%,
Cc1ccc(-n2nc(C)c3c2OC(N)=C(C#N)C3c2ccncc2)cc1 (configuration not stated),inconclusive: -35.6%,
Cc1ccccc1CNC(=O)c1ccccc1,inconclusive: -3.84%,
CSC1=NC(C)(C)C=C(/C=C/c2ccc(Cl)cc2Cl)N1,inconclusive: -15.9%,
CC(C)=C1SC(N2CCN(c3ccc(C)c(Cl)c3)CC2)=NC1=O,,"inconclusive: 259 nM [activator, partial curve]"
COc1cccc(-n2cnnc2SCC(=O)NC2CC2)c1,,"inconclusive: 14600 nM [falling, partial curve, poor fit]"
CN(C)c1ccc2nsnc2c1[N+](=O)[O-],inconclusive: 1.12%,
Clc1ccccc1/C=C/C=N/Nc1nc(N2CCOCC2)nc(N2CCOCC2)n1,inconclusive: 17.7%,
CCC(=O)NC(=S)Nc1ccc(NC(=O)COc2ccc(Cl)c(C)c2)cc1,inconclusive: 16.4%,
Cn1c(=O)c2c(nc(NCCCO)n2CCc2ccccc2)n(C)c1=O,inactive,
COc1ccc(N2CC(C(=O)OCC(=O)Nc3ccccc3C)CC2=O)cc1 (configuration not stated),,"inconclusive: 146 nM [falling, full curve, poor fit]"
CCOc1cccc(OCCCOc2ccccc2)c1,,"inconclusive: 1640 nM [falling, partial curve]"
Cc1cc(C)c(S(=O)(=O)N2CCN(C(=O)C3COc4ccccc4O3)CC2)c(C)c1 (configuration not stated),,"inconclusive: 651 nM [falling, full curve, poor fit]"
COc1ccc(NC(=O)CNC(=O)C2CCCCC2)cc1,,"inconclusive: 29100 nM [activator, single point]"
CCC(CC)C(=O)c1c[nH]c(C(=O)NCCc2ccccn2)c1,inconclusive: 66.1%,
Cc1cccc(NC(=O)CSc2nc3[nH]ncc3c(=O)[nH]2)c1C,inactive,
O=C1Nc2ccccc2S/C1=C\C(=O)N1CCCC1,,"inconclusive: 6510 nM [rising, single point]"
